Data from patent publication US8630703B2, “Treatment utilizing hydrophobic weak bases chemotherapeutic agents and illumination” (Technion Research & Development Foundation Limited, priority 2011, dated 2014).

What was measured:
[1] = Superoxide detection by EPR spin trapping with DMPO; assay type: physicochemical; details: DMSO/H2O (9:1); 1 mM NADH; 400-490 nm light
[2] = Singlet oxygen luminescence detection; assay type: physicochemical; details: 355 nm pulsed laser; acetonitrile and DMSO solutions; 1270 nm
A549/K1.5 cells = test: Live cell fluorescent imaging (lysosomal localization and photodestruction); assay type: cell-based, Human
Experimental: Lysosomes and mitochondria were stained by incubating the cells 100 nM LysoTracker® Red or 100 nM MitoTracker® Red, respectively, for 1 hour. For subcellular localization of C-1330, cells were also stained with 10 μM C-1330 for 30 minutes.
Nuclear staining was performed prior to fluorescence imaging by replacing the growth medium with medium containing 2 μg/ml Hoechst 33342, followed by incubation for 10 minutes. Prior to nuclear staining, A549/K1.5 cells were incubated for 1 hour with 10 μM fumitremorgin C (FTC) to prevent efflux of Hoechst 33342 by ABCG2.
Live cell fluorescent imaging was performed using an Axiovert 200 inverted fluorescence microscope (Carl Zeiss) equipped with a digital camera. […] Light intensity was maintained at 12.5% of the maximum. The magnification used was ×630.
Cells were pre-incubated with 10 mM ammonium chloride for 30 minutes or with 1 μM bafilomycin A1 for 60 minutes, prior to being incubated with 10 μM C-1330 for 30 minutes as described hereinabove. Ammonium chloride and bafilomycin A1 remained present during the incubation with C-1330.
A549/K1.5 cells were incubated with 10 μM doxorubicin for 30 minutes, and then observed and illuminated (at 470 nm) by live cell fluorescent imaging as described in the Materials and Methods section. Upon illumination, the cells were photographed every second, in order to observe changes in the cells over time.

| SMILES | EPR signal of DMPO-superoxide spin adduct upon irradiation [1] | singlet oxygen luminescence upon photoexcitation [2] | subcellular localization before illumination (A549/K1.5 cells; A549/K1.5, 10 μM, 30 minutes) | lysosomal accumulation on co-treatment with ABCG2 inhibitor (A549/K1.5 cells; MDR cells, 20 μM C-1311 + 10 μM fumitremorgin C, 2 hours) |
| --- | --- | --- | --- | --- |
| COc1ccc2c(c1)c(=O)c1c(NCCCN(C)C)ccc3nc(C)n2c31 [C-1375] | increased overtime | measurable luminescence which was linearly correlated to the intensity of irradiation |  |  |
| COc1cccc2c1C(=O)c1c(O)c3c(c(O)c1C2=O)C[C@@](O)(C(=O)CO)C[C@@H]3O[C@H]1C[C@H](N)[C@H](O)[C@H](C)O1 [doxorubicin, reference compound] |  |  | accumulates in lysosomes |  |
| CCN(CC)CCCNc1ccc2nc(C)n3c4ccc(OC)cc4c(=O)c1c23 [C-1379] | increased overtime | measurable luminescence which was linearly correlated to the intensity of irradiation |  |  |
| CCN(CC)CCNc1ccc2ncn3c4ccc(O)cc4c(=O)c1c23 [C-1311] |  |  |  | lysosomal accumulation of C-1311 |
